Source: the supplement of paper PMC10331698
± gives the standard deviation of the averaged measurements. Most entries show no effect beyond the scatter of the controls.

Experiments:
Assay in all cases: level (log10 ratio to DMSO vehicle control); higher = higher biomarker level / cell amount than vehicle control
[1] = compound: C=CC(=O)OCC(F)(F)C(F)(F)C(F)(F)C(F)(F)C(F)(F)C(F)(F)C(F)(F)C(F)F [1H,1H,9H-Perfluorononyl acrylate]; details: 2200 nM; in DMSO
Description: (§1)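 BioMAP Diversity Plus panel of 12 human primary cell co-culture systems (3C, 4H, LPS, SAg, BT, BF4T, BE3C, CASM3C, HDF3CGF, KF3CT, MyoF, Mphg). Compounds were added 1 h before stimulation and left for 24 h (MyoF 48 h; BT 72 h for soluble read-outs or 6 d for IgG). Biomarkers were read by ELISA, cytotoxicity by SRB, PBMC viability and proliferation by Alamar Blue. Each well value was divided by the mean of 8 DMSO control wells on the same plate and log10 transformed; duplicate blinded samples were tested at 4 concentrations.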

[2] = compound: CCOC(=O)CC(=O)C(F)(F)C(F)(F)F [Ethyl pentafluoropropionyl acetate]; details: 2200 nM; in DMSO
Description: as §1

[3] = compound: FC(F)(F)C(F)(F)C(F)(F)C(F)(F)C(F)(F)C(F)(F)C(F)(F)C(F)(F)CCS [2-(Perfluorooctyl)ethanthiol]; details: in DMSO
Description: as §1

Perfluorooctanamidine = compound: N=C(N)C(F)(F)C(F)(F)C(F)(F)C(F)(F)C(F)(F)C(F)(F)C(F)(F)F [Perfluorooctanamidine]; details: in DMSO
Description: as §1

[4] = compound: O=C(CC(=O)C(F)(F)C(F)(F)C(F)(F)F)c1cccs1 [(Perfluorobutyryl)-2-thenoylmethane]; details: 2200 nM; in DMSO
Description: as §1

Perfluorodecanoic acid = compound: O=C(O)C(F)(F)C(F)(F)C(F)(F)C(F)(F)C(F)(F)C(F)(F)C(F)(F)C(F)(F)C(F)(F)F [Perfluorodecanoic acid]; details: in DMSO
Description: as §1

Perfluorononanoic acid = compound: O=C(O)C(F)(F)C(F)(F)C(F)(F)C(F)(F)C(F)(F)C(F)(F)C(F)(F)C(F)(F)F [Perfluorononanoic acid]; details: 2200 nM; in DMSO
Description: as §1

[5] = compound: O=C(O)C(F)(F)C(F)(F)C(F)(F)C(F)(F)C(F)(F)C(F)(F)C(F)(F)F [Ammonium perfluorooctanoate]; details: 2200 nM; in DMSO
Description: as §1

Perfluorooctanoic acid = compound: O=C(O)C(F)(F)C(F)(F)C(F)(F)C(F)(F)C(F)(F)C(F)(F)C(F)(F)F [Perfluorooctanoic acid]; details: 2200 nM; in DMSO
Description: as §1

[6] = compound: O=C(O)C(F)(F)OC(F)(F)C(F)(F)OC(F)(F)C(F)(F)OC(F)(F)C(F)(F)C(F)(F)C(F)(F)F [Perfluoro-3,6,9-trioxatridecanoic acid]; details: 2200 nM; in DMSO
Description: as §1

[7] = compound: O=C(O)C(F)(F)OC(F)(F)C(F)(F)OC(F)(F)F [Perfluoro-3,6-dioxaheptanoic acid]; details: 2200 nM; in DMSO
Description: as §1

[8] = compound: O=C(O)CCC(F)(C(F)(F)F)C(F)(F)F [4,4-bis(Trifluoromethyl)-4-fluoropropanoic acid]; details: 2200 nM; in DMSO
Description: as §1

[9] = compound: OCC(F)(F)C(F)(F)C(F)(F)C(F)(F)C(F)(F)C(F)(F)C(F)(F)C(F)(F)CO [1H,1H,10H,10H-Perfluorodecane-1,10-diol]; details: 2200 nM; in DMSO
Description: as §1

[10] = compound: OCC(F)(F)OC(F)(F)C(F)(F)OC(F)(F)C(F)(F)OC(F)(F)CO [1H,1H,11H,11H-Perfluorotetraethylene glycol]; details: 2200 nM; in DMSO
Description: as §1

Test System | level (log10) [1] | level (log10) [2] | level (log10) ([3]; 740 nM) | level (log10) ([3]; 2200 nM) | level (log10) (Perfluorooctanamidine; 2200 nM) | level (log10) (Perfluorooctanamidine; 6700 nM) | level (log10) (Perfluorooctanamidine; 20000 nM) | level (log10) (Perfluorooctanamidine; 60000 nM) | level (log10) [4] | level (log10) (Perfluorodecanoic acid; 2200 nM) | level (log10) (Perfluorodecanoic acid; 6700 nM) | level (log10) (Perfluorodecanoic acid; 20000 nM) | level (log10) (Perfluorononanoic acid) | level (log10) [5] | level (log10) (Perfluorooctanoic acid) | level (log10) [6] | level (log10) [7] | level (log10) [8] | level (log10) [9] | level (log10) [10]
BF4T:CXCL8/IL-8 | 0.0255 ± 0.063 | 0.0045 ± 0.042 | 0.0675 ± 0.08 | 0.0455 ± 0.061 | 0.0045 ± 0.028 | 0.0025 ± 0.016 | 0.002 ± 0.034 | 0 | 0.0215 ± 0.005 | 0.066 ± 0.0085 | 0.0395 ± 0.012 | -0.293 ± 0.076 | 0.021 ± 0.0057 | 0.0275 ± 0.0035 | 0.005 ± 0.031 | 0.009 ± 0.025 | 0.0415 ± 0.0092 | 0.0135 ± 0.012 | 0.021 ± 0.011 | 0 ± 0.016
BF4T:tPA | -0.0175 ± 0.021 | -0.0085 ± 0.0078 | -0.0175 ± 0.023 | -0.0315 ± 0.0035 | 0.041 ± 0.024 | 0.004 ± 0.014 | -0.027 ± 0.069 | 0.028 | -0.07 ± 0.041 | 0.0125 ± 0.011 | -0.0185 ± 0.005 | -0.18 ± 0.097 | -0.048 ± 0.0028 | 0.006 ± 0.031 | -0.03 ± 0.072 | -0.0265 ± 0.049 | -0.018 ± 0.062 | 0.001 ± 0.068 | -0.0245 ± 0.026 | 0.0055 ± 0.042
BE3C:MMP-9 | 0.014 ± 0.016 | 0.0005 ± 0.042 | -0.038 ± 0.02 | -0.008 ± 0.017 | 0.005 ± 0.059 | -0.0115 ± 0.005 | -0.015 ± 0.023 | -0.001 | -0.06 ± 0.0014 | -0.0155 ± 0.033 | 0.008 ± 0.014 | -0.458 ± 0.0028 | -0.036 ± 0.023 | -0.0185 ± 0.0035 | -0.006 ± 0.021 | -0.0105 ± 0.03 | -0.0295 ± 0.0092 | 0.0025 ± 0.028 | 0.0155 ± 0.013 | 0.0085 ± 0.012
BT:sIL-17A | 0.068 ± 0.21 | -0.076 ± 0.064 | -0.094 ± 0.044 | -0.044 ± 0.079 | 0.148 ± 0.12 | 0.1795 ± 0.00071 | -0.145 ± 0.044 | -0.141 | -0.004 ± 0.073 | -0.062 ± 0.13 | -0.0525 ± 0.0092 | -0.0075 ± 0.17 | -0.0945 ± 0.27 | 0.0855 ± 0.029 | 0.094 ± 0.061 | -0.0045 ± 0.011 | -0.122 ± 0.028 | 0.054 ± 0.0014 | -0.105 ± 0.011 | -0.02 ± 0.05
lMphg:CD62E/E-Selectin | -0.0125 ± 0.00071 | -0.0045 ± 0.026 | -0.015 ± 0.0071 | -0.005 ± 0.0071 | -0.008 ± 0.052 | 0.0065 ± 0.042 | 0.0655 ± 0.015 | 0.049 | -0.011 ± 0.075 | -0.0335 ± 0.021 | -0.026 ± 0.0028 | -0.0135 ± 0.011 | 0.011 ± 0.035 | -0.031 ± 0.027 | 0.026 ± 0.0099 | 0.0195 ± 0.04 | 0.018 ± 0.02 | -0.0115 ± 0.013 | -0.0125 ± 0.011 | -0.0365 ± 0.018
KF3CT:uPA | -0.025 ± 0.041 | -0.0165 ± 0.018 | -0.0005 ± 0.0021 | -0.005 | -0.005 ± 0.02 | 0.0015 ± 0.0021 | 0.0165 ± 0.0035 | 0.01 | 0.019 ± 0.0028 | -0.0085 ± 0.005 | -0.0095 ± 0.013 | 0 ± 0.023 | 0.002 ± 0.048 | 0.0065 ± 0.032 | -0.0005 ± 0.016 | 0.018 ± 0.0085 | -0.029 ± 0.0057 | -0.0075 ± 0.0078 | 0.0055 ± 0.022 | -0.0105 ± 0.0078
4H:CD106/VCAM-1 | -0.002 ± 0.0042 | -0.0155 ± 0.056 | -0.009 ± 0.0014 | -0.003 ± 0.0057 | 0.003 ± 0.0028 | 0.0015 ± 0.011 | -0.028 ± 0.016 | -0.132 | -0.024 ± 0.013 | 0.037 ± 0.021 | 0.0165 ± 0.0092 | 0.0185 ± 0.029 | -0.0215 ± 0.005 | 0.047 ± 0.035 | 0.017 ± 0.0057 | -0.0165 ± 0.0021 | -0.0105 ± 0.021 | 0.012 ± 0.0042 | -0.0155 ± 0.012 | 0.042 ± 0.064
KF3CT:CXCL8/IL-8 | 0.0005 ± 0.011 | -0.0025 ± 0.0035 | -0.015 ± 0.0042 | -0.0125 ± 0.025 | 0.0075 ± 0.0064 | 0.0135 ± 0.021 | 0.0305 ± 0.018 | 0.043 | -0.015 ± 0.038 | 0.0195 ± 0.016 | -0.0225 ± 0.011 | -0.0035 ± 0.018 | 0 ± 0.041 | -0.0155 ± 0.03 | -0.0015 ± 0.011 | -0.0115 ± 0.03 | 0.004 ± 0.018 | -0.027 ± 0.024 | 0.005 ± 0.014 | 0.0025 ± 0.064
CASM3C:CXCL9/MIG | 0.02 ± 0.027 | 0 ± 0.028 | 0.001 ± 0.081 | -0.0075 ± 0.077 | 0.041 ± 0.034 | -0.005 ± 0.013 | -0.017 ± 0.024 | 0.069 | 0.018 ± 0.0099 | 0.0075 ± 0.019 | -0.012 ± 0.0028 | -0.0055 ± 0.0064 | 0.029 ± 0.0071 | 0.02 ± 0.0071 | 0.019 ± 0.038 | 0.022 ± 0.041 | 0.051 ± 0.033 | 0.008 ± 0.048 | 0.007 ± 0.0071 | 0.028 ± 0.051
MyoF:CD106/VCAM-1 | -0.001 ± 0.0028 | -0.002 ± 0.013 | -0.004 ± 0.0042 | 0.0045 ± 0.025 | 0.004 ± 0.0099 | 0.0115 ± 0.026 | -0.002 ± 0.018 | 0.011 | -0.022 ± 0.03 | -0.009 ± 0.011 | -0.019 ± 0.0071 | -0.084 ± 0.02 | -0.012 ± 0.017 | -0.0045 ± 0.00071 | -0.004 ± 0.0014 | 0.0065 ± 0.016 | 0.0015 ± 0.043 | -0.012 | 0.0095 ± 0.023 | 0.01 ± 0.0042
3C:CD87/uPAR | 0.004 ± 0.0057 | 0.006 ± 0.016 | -0.0145 ± 0.029 | -0.0255 ± 0.064 | 0.0445 ± 0.021 | 0.0265 ± 0.059 | 0.0135 ± 0.028 | 0.042 | -0.0395 ± 0.013 | 0.006 ± 0.035 | 0.011 ± 0.02 | -0.01 ± 0.02 | 0.004 ± 0.0071 | -0.0075 ± 0.00071 | 0.01 ± 0.025 | 0.019 ± 0.0085 | -0.005 ± 0.016 | 0.057 ± 0.023 | -0.0225 ± 0.036 | 0.0165 ± 0.033
BF4T:CD106/VCAM-1 | 0.009 ± 0.0014 | 0.0085 ± 0.03 | 0.004 ± 0.038 | -0.0305 ± 0.011 | 0.0205 ± 0.036 | 0.0325 ± 0.0092 | 0.018 ± 0.052 | 0.021 | -0.028 ± 0.034 | -0.0065 ± 0.042 | -0.026 ± 0.0085 | -0.311 ± 0.0042 | -0.047 ± 0.025 | 0.011 ± 0.033 | 0.0265 ± 0.054 | -0.0055 ± 0.018 | -0.0205 ± 0.059 | 0.0035 ± 0.0092 | -0.0005 ± 0.053 | 0.013 ± 0.041

Exported as a markdown table: entries from further up

| Test System | level (log10) [1] | level (log10) [2] | level (log10) ([3]; 740 nM) | level (log10) ([3]; 2200 nM) | level (log10) (Perfluorooctanamidine; 2200 nM) | level (log10) (Perfluorooctanamidine; 6700 nM) | level (log10) (Perfluorooctanamidine; 20000 nM) | level (log10) (Perfluorooctanamidine; 60000 nM) | level (log10) [4] | level (log10) (Perfluorodecanoic acid; 2200 nM) | level (log10) (Perfluorodecanoic acid; 6700 nM) | level (log10) (Perfluorodecanoic acid; 20000 nM) | level (log10) (Perfluorononanoic acid) | level (log10) [5] | level (log10) (Perfluorooctanoic acid) | level (log10) [6] | level (log10) [7] | level (log10) [8] | level (log10) [9] | level (log10) [10] |
| --- | --- | --- | --- | --- | --- | --- | --- | --- | --- | --- | --- | --- | --- | --- | --- | --- | --- | --- | --- | --- |
| 4H:CD106/VCAM-1 | -0.002 ± 0.0042 | -0.0155 ± 0.056 | -0.009 ± 0.0014 | -0.003 ± 0.0057 | 0.003 ± 0.0028 | 0.0015 ± 0.011 | -0.028 ± 0.016 | -0.132 | -0.024 ± 0.013 | 0.037 ± 0.021 | 0.0165 ± 0.0092 | 0.0185 ± 0.029 | -0.0215 ± 0.005 | 0.047 ± 0.035 | 0.017 ± 0.0057 | -0.0165 ± 0.0021 | -0.0105 ± 0.021 | 0.012 ± 0.0042 | -0.0155 ± 0.012 | 0.042 ± 0.064 |
| CASM3C:CXCL9/MIG | 0.02 ± 0.027 | 0 ± 0.028 | 0.001 ± 0.081 | -0.0075 ± 0.077 | 0.041 ± 0.034 | -0.005 ± 0.013 | -0.017 ± 0.024 | 0.069 | 0.018 ± 0.0099 | 0.0075 ± 0.019 | -0.012 ± 0.0028 | -0.0055 ± 0.0064 | 0.029 ± 0.0071 | 0.02 ± 0.0071 | 0.019 ± 0.038 | 0.022 ± 0.041 | 0.051 ± 0.033 | 0.008 ± 0.048 | 0.007 ± 0.0071 | 0.028 ± 0.051 |
